Data published in PubChem BioAssay AID743255 (National Center for Advancing Translational Sciences (NCATS), 2014).
Hit rate of the full screen: of about 390,000 compounds, about 910 (0.23%) were called active. Inconclusive results, whose numbers are uncertain, are shown with a selection of clear calls. Calls follow the shape of the dose curve; as a rule, active = well fitted inhibition curve with a large enough effect; inconclusive = small, poorly fitted or top-dose-only effect; inactive = no such curve, though single readings can be large or run the other way. Potencies of inconclusive entries are doubtful fits and often do not repeat.

The chains behind the UniProt entries cited, without tags or fusion partners. Where a name states a change or a piece, a line headed by the entry shows the natural chain unless it says otherwise.
UniProt O94782: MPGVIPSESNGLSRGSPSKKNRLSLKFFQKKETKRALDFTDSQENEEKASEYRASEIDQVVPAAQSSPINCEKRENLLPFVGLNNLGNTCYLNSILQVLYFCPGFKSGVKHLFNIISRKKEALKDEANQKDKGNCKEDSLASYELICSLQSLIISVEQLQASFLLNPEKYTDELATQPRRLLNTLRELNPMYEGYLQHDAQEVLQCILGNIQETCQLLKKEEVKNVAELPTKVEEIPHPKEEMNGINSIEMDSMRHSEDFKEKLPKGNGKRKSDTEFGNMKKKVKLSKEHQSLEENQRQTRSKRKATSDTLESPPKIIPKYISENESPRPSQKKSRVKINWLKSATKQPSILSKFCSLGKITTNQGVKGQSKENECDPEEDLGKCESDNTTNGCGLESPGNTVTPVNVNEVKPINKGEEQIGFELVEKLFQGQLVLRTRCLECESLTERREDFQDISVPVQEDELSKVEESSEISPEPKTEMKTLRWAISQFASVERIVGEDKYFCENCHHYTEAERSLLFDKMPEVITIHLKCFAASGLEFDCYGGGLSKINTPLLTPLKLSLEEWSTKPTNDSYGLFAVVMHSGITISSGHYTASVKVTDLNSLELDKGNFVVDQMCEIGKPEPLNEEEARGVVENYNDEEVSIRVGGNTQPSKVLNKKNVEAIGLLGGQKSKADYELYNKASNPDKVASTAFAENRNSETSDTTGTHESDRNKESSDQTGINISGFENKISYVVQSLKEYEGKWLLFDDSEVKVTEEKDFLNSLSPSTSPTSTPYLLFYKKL

Target: Ubiquitin carboxyl-terminal hydrolase 1 (Homo sapiens) (UniProt O94782)
Assay: Inhibitors of USP1/UAF1: Primary Screen; also: nearly all actives have a fitted effect of over 60% in size
Conditions: recombinant USP1/UAF1, Ub-Rhodamine cleavage fluorescence; activity change, negative = inhibition: at 57.1 µM (top of the series)
Outline: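 USP1/UAF1 complex at 1 nM was preincubated with compound for 15 min at room temperature, then Ub-Rho substrate (150nM final) was added. Fluorescence (480/540 nm) was read kinetically, 6 reads every 60 seconds.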
% is scaled to controls: 0 for no effect and ±100 for the full control effect; potency is read from the fitted curve at half-maximal effect.

Potency, inconclusive:
COC(=O)c1ccccc1NC(=O)COC(C)=O 11.2 µM [inhibitor, partial curve, poor fit], Cc1cccc(NC(=O)CSc2nc(-c3ccccc3)cn2-c2ccccc2)c1C 2.82 µM [inhibitor, full curve, poor fit], COc1ccccc1Cn1c(SCC(N)=O)nc2c(oc3ccccc32)c1=O 2.24 µM [inhibitor, full curve, poor fit], CSc1nsc(/C=C/Nc2ccc(F)cc2F)c1C#N 28.2 µM [inhibitor, single point], COc1cccc2cc(C(=O)NCc3ccc(Cl)cc3)c(=O)oc12 15.8 µM [inhibitor, single point], COc1ccc(OC)c(/C=N\NC(=O)c2c(C)nc3cc(C)ccn23)c1 0.224 µM [inhibitor, full curve, poor fit], CCN(CC(=O)Nc1ccc(NC(C)=O)cc1)C(=O)/C=C/c1c(C)nn(-c2ccc(F)cc2)c1Cl 8.91 µM [inhibitor, full curve], CCOc1cccc2sc(NC(=O)c3ccc(Br)s3)nc12 5.01 µM [inhibitor, partial curve], COc1ccc(-c2cn3c(n2)sc2cc(C(=O)NCCCN4CCCCCC4)ccc23)cc1 50.1 µM [inhibitor, partial curve, poor fit], O=C(c1ccc[nH]1)N1O[C@@H]2C=C[C@H]1C2 0.282 µM [inhibitor, full curve, poor fit], CN(Cc1cccc(Cl)c1Cl)C(=O)CCNC(=O)c1ccco1 0.398 µM [inhibitor, partial curve, poor fit], CN(c1ccccc1)S(=O)(=O)c1cccc(NC(=O)CN2CCCc3ccccc32)c1 50.1 µM [inhibitor, partial curve, poor fit], Cc1ccc(CNC(=O)CSc2nc(=O)[nH]c3c2CCCC3)cc1 44.7 µM [inhibitor, partial curve, poor fit], COCCN(C(=O)COC(=O)c1cc2c(s1)CCC2)c1c(N)n(Cc2ccccc2)c(=O)[nH]c1=O 56.2 µM [inhibitor, partial curve, poor fit], CC(C)C12CN3CC(C(C)C)(CN(C1)C3c1ccc(Cl)cc1)C2=O (stereo unspecified) 44.7 µM [inhibitor, partial curve], CCOc1ccc(NCc2ccccc2OCc2cccc(F)c2)cc1 22.4 µM [inhibitor, partial curve], Cc1cc(-n2ccnc2)n2c(nc3ccccc32)c1C#N 20 µM [inhibitor, partial curve], CCOC(=O)c1ccc(N2CN(CC)CNC2=S)cc1 0.562 µM [inhibitor, full curve, poor fit], Oc1c(CN2CCOCC2)ccc2ccccc12 50.1 µM [inhibitor, partial curve, poor fit], COc1ccc(CCNC(=O)COc2ccc3c(C)cc(=O)oc3c2)cc1 56.2 µM [inhibitor, partial curve, poor fit], COc1ccc(CCNC(=O)COC(=O)c2ccc([N+](=O)[O-])o2)cc1 31.6 µM [inhibitor, partial curve], CN1c2ccccc2-c2nc3ccccc3n2C1c1ccncc1 (stereo unspecified) 31.6 µM [inhibitor, partial curve], Cc1cccc(OC(=O)c2cc(-c3ccc4c(c3)OCCO4)on2)c1 79.4 µM [inhibitor, partial curve, poor fit], CCOC(=O)c1ccc(N2C(=O)c3n[nH]c(C)c3C2c2ccc(C(C)(C)C)cc2)cc1 (stereo unspecified) 39.8 µM [inhibitor, partial curve], C#CCCOC(=O)N1C2=NC(C(=O)OC)=C(C(=O)OC)[C@@H]3N(CC=C)c4ccccc4[C@]23C[C@H]1C(=O)OC 70.8 µM [inhibitor, partial curve, poor fit], CCOC(=O)[C@@H]1[C@H]2COc3ccccc3[C@H]2N2C(=O)N(c3ccc(Cl)cc3)C(=O)[C@]12C 50.1 µM [inhibitor, partial curve, poor fit], Cc1c(Cl)cccc1NC(=S)C(=C([O-])c1ccc(Cl)s1)[n+]1ccccc1 8.91 µM [inhibitor, single point], CCCN1C(=O)/C(=C/c2c(NCCCOC(C)C)nc3c(C)cccn3c2=O)SC1=S 39.8 µM [inhibitor, partial curve, poor fit]

Activity change, negative = inhibition, inactive:
Cn1cccc1/C=C(/C#N)C(N)=S -11.7%, COc1ccc(N2CCN(C(=O)c3ccc4c(c3)N(Cc3ccc(F)cc3)C(=O)c3ccccc3S4=O)CC2)cc1 (stereo unspecified) -26%, CC(=O)N/C(=C\c1ccccc1)C(=O)OCC(=O)c1c(N)n(C)c(=O)n(C)c1=O -1.67%, COc1ccc(S(=O)(=O)c2c(Nc3ccc(F)cc3)sc(C(=O)c3ccc4c(c3)OCO4)c2N)cc1 -4.67%, CC(C)Oc1ccc(CNC(=O)Cn2c(=O)c3cccn3c3cccnc32)cc1 -18.2%, Nc1nnc(-c2cccc([N+](=O)[O-])c2)o1 -26.7%, CCOC(=O)/C(C(=O)Nc1ccccc1Cl)=C1/NC(C)(C)Cc2ccccc21 -15.7%, CCCSc1ncc(Cl)c(C(=O)N(Cc2ccc(N(C)C)cc2)C2CCS(=O)(=O)C2)n1 (stereo unspecified) -23.7%, CCOC(=O)CNC(=O)N1CCc2cc(S(=O)(=O)N3CCC(C)CC3)ccc21 -9.91%, O=C(Nc1cc2c(oc1=O)CCCC2=O)c1ccc(Cl)cc1 -6.48%, O=C(Nc1ccc2c(c1)OCCO2)C(=O)c1c[nH]c2ccccc12 -26.3%, CC(C)C[C@H]1CN=C(Nc2ccccc2)N1CCCC1CCCCC1 -23.5%, Cc1cccc(-c2noc(-c3cccnc3NCc3ccco3)n2)c1 -17%
